Results reported in publication PMC10571540.
These are yes or no findings as the source states them, for the method shown. In cells and extracts the contact can be indirect. Some entries that bind do so weakly or less than the wild type. For part of these data: Sequences can lack the tags named with a protein. One block for each substance: values may come before it.

The chains behind the UniProt entries cited, without tags or fusion partners. Residues count along the entry.
UniProt P02647, residues 19-267: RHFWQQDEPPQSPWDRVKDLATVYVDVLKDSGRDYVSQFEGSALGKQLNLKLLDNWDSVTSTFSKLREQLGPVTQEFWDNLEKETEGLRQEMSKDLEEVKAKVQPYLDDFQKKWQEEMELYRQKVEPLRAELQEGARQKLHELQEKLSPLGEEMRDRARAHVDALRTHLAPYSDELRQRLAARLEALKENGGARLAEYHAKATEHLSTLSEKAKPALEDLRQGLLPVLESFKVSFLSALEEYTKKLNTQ

Tests used:
[1] = molecular target: T1, SIDT2 (endogenous, HepG2 cells) (human (endogenous in HepG2)) (UniProt Q8NBJ9); test: co-IP; HepG2 cells under control conditions, with scrambled siRNA or with siSIDT2; ApoA1 co-immunoprecipitated with SIDT2, Western blot
T1 sequence: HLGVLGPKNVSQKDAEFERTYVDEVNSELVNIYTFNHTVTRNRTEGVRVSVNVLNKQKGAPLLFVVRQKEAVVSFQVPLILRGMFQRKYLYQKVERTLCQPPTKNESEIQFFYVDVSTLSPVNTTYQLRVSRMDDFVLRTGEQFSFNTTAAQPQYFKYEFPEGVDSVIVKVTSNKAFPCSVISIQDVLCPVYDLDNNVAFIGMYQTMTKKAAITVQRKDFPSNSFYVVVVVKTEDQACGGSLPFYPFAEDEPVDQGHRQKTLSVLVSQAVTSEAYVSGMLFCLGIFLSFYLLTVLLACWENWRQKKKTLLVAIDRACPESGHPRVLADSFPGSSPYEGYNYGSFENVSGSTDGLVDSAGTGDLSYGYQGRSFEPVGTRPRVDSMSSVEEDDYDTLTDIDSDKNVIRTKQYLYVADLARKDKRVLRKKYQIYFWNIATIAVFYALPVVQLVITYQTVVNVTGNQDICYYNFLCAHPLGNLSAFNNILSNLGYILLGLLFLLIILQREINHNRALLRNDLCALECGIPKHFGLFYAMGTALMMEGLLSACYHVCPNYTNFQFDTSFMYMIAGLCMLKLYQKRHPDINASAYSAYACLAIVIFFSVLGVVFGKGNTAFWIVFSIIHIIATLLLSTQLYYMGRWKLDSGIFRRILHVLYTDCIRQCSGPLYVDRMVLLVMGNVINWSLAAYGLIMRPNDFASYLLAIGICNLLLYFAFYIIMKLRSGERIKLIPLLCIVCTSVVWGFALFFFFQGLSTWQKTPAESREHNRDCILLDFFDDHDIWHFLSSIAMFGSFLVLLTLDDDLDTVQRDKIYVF

[2] = molecular target: T2, SIDT2 fused to the green fluorescent protein (SIDT2-GFP) (human) (UniProt Q8NBJ9); test: co-IP; HEK293 cell extracts of co-transfected cells; SIDT2-GFP immunoprecipitated with an anti-GFP antibody; SIDT2 and ApoA1 detected by Western blot
T2 sequence: T1 sequence

[3] = molecular target: T2, SIDT2 fused to the green fluorescent protein (SIDT2-GFP) (human); test: FRET or BRET; acceptor photobleaching of OFPSpark by confocal microscopy in HEK293 cells co-expressing the GFP donor and the OFPSpark acceptor

- binding [1]: binds
Substance: ApoA1 (endogenous, HepG2 cells) (from UniProt P02647 19-267)

- binding [2]: binds
Substance: ApoA1 (expressed in HEK293 cells for co-immunoprecipitation) (from UniProt P02647 19-267)

- binding [3]: binds
Substance: ApoA1 fused to the red fluorescent protein OFPSpark (ApoA1-OFPSpark) (from UniProt P02647 19-267)
